The term AC50 denotes the concentration giving half of the maximal activity seen.

The assay can be described thus: qHTS Assay for Modulators of Lamin A Splicing. Particulars: HeLa LMNA splicing GFP/RFP minigene ratio, 48 h. The gist of the method:
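S3 HeLa cells stably expressing lamin A-EGFP splicing minigene plus DsRed2, 600 cells/well, 48 h compound exposure at 37C. Laser-scanning cytometry; analysed as GFP (500-530 nm)/RFP (575-640 nm) total intensity ratio; 0.5% DMSO vehicle.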
On the technique in general: qHTS replaces the single test concentration by a dilution series.

Where [1] appears, read: measured here: RFP viability control channel.
Setting [2] is: measured here: GFP splicing reporter channel.

Structures are written as SMILES. Several values for one entry are separate records, joined by “and”; a condition that tells them apart may be missing. Equal values may be shown once. The list shows a part of the results. The main result of the screen is listed elsewhere. These columns were measured beside it and carry no call. The list favours compounds with an active or inconclusive main result. Words in brackets tell the shape of the fitted curve; partial curves, single points and poor fits give uncertain potencies.

Consider `CCn1c(SCc2ccccc2Cl)nc(=O)c2c(C(=O)OC)cc(C3CC3)nc21`, for which the half-maximal activity concentration (AC50) under setting [1] was 28.2 µM [falling, single point]. Same read-out and setting: next, `Cc1cc(/C=C(\C#N)C(=O)NCc2ccco2)c(C)n1-c1ccc(C(=O)O)cc1`: 0.1 µM [falling, full curve]; `CCCCCC1CC(CC(=O)Nc2ccc([N+](=O)[O-])cc2)C(=O)O1` (stereo unspecified): 35.5 µM [rising, single point]; `O=C1OC(N2CCN(c3ccccn3)CC2)c2ccccc21` (stereo unspecified): 0.2 µM [rising, full curve, poor fit].

As for `O=C(NCc1cccs1)C1CCCN(S(=O)(=O)c2ccc(Br)s2)C1` (stereo unspecified), the AC50 under setting [1] is 35.5 µM [rising, single point].

With `CCOC(=O)Cc1csc(NC(=O)c2sc3nc4cc(C)ccc4cc3c2N)n1`, under setting [1], the AC50 is 20 µM [rising, partial curve, poor fit]. With `CCOc1ccc(CN(Cc2ccco2)C(c2cccs2)c2nnnn2C(C)(C)C)cc1` (stereo unspecified), the AC50 runs as follows: under setting [2], 11.2 µM [rising, single point]; under setting [1], 25.1 µM [rising, single point].

Consider `Cc1cc(C)n2c(SCC(=O)Nc3ccc(F)cc3F)nnc2n1`, for which the AC50 under setting [2] was 0.0178 µM [falling, full curve, poor fit].

`CCOC(=O)c1cc(-c2ccccc2)n(CCC(=O)NC(C)CC)c1C` (stereo unspecified): under setting [1], the AC50 is 11.2 µM [rising, single point].

Consider `COc1cccc(OC)c1OCCCCCc1c(C)n[nH]c1C`, for which, under setting [1], the AC50 is 35.5 µM [rising, single point]. Same read-out and setting: next, `S=C(N/N=C/c1ccccc1Cl)Nc1ccccc1`: 35.5 µM [falling, single point]; `O=c1[nH]c2ccccc2n1C1=CCCC1`: 12.6 µM [rising, single point]; `O=C(N/N=C/c1ccncc1)/C(=C/c1ccccc1)NC(=O)c1ccccc1`: 2.51 µM [rising, full curve, poor fit]. Take `Cc1ccc2[nH]c(=O)c(CN(Cc3cccs3)Cc3nnnn3Cc3ccccc3)cc2c1`: the AC50 under setting [1] was 35.5 µM [rising, single point].

In the case of `COc1ccc(/C=C(/C(=O)c2cccs2)N2C=CC=CC2=C(C#N)C#N)cc1`, the half-maximal activity concentration (AC50) under setting [2] is 35.5 µM [falling, single point]. As for `O=c1c(N2CCc3ccccc3C2)csc2ccc(Br)cc12`, the AC50 under setting [2] was 3.98 µM [rising, partial curve]. For `Nc1nc(SCC(=O)NN(c2ccccc2)c2ccccc2)n[nH]1`, the AC50 under setting [2] is 2.24 µM [rising, partial curve, poor fit] and the AC50 under setting [1] is 1.12 µM [rising, partial curve]. As for `CC(C)CCN(Cc1ccco1)C(=O)Cn1ncc2c([nH]c3ccccc32)c1=O`, the AC50 by setting is: under setting [2], 3.98 µM [rising, single point]; under setting [1], 0.316 µM [rising, single point]. As for `COc1ccc(Oc2nc(C)nc3c2oc2ccccc23)cc1`, the AC50 reads like this: under setting [2], 2.82 µM [rising, single point]; under setting [1], 7.08 µM [rising, partial curve].

Regarding `Cc1cccc(C(=O)Nc2ccc(N3CCN(c4ccc(F)cc4)CC3)c(C(=O)O)c2)c1`, the AC50 under setting [2] is 0.0282 µM [falling, full curve, poor fit]. `CCOC(=O)c1cc(-c2ccccc2)n(CCCC(=O)Nc2cc(C)ccc2OC)c1C`: the AC50 under setting [1] was 35.5 µM [falling, single point]. Take `COc1ccccc1Cc1nc2ccccc2nc1SCC(=O)N1CCC(C)CC1`: the AC50 is 7.08 µM [rising, full curve] under setting [2] and 31.6 µM [rising, partial curve] under setting [1]. In the case of `CCNC(=O)NC(=O)COC(=O)CCCc1nc2ccccc2s1`, the AC50 under setting [2] is 0.0316 µM [falling, full curve, poor fit] and the AC50 under setting [1] was 0.631 µM [falling, full curve]. In the case of `C=CCn1c(NC(=O)c2ccc(Br)o2)c(S(=O)(=O)c2ccccc2)c2nc3ccccc3nc21`, the AC50 reads like this: under setting [2], 11.2 µM [falling, partial curve]; under setting [1], 14.1 µM [falling, partial curve]. Consider `CCOc1ccc(C(=O)NCc2ccc3c(c2)CCN3C(=O)c2ccc(C)cc2)cc1OCC`, for which the AC50 under setting [2] was 3.98 µM [falling, single point]. For the molecule `COC(=O)c1sc(N2C(=O)C(O)=C(C(=O)c3ccc(C)o3)C2c2ccc(F)cc2)nc1C` (stereo unspecified), the AC50 under setting [1] was 15.8 µM [rising, single point]. Same read-out and setting: in the case of `CC(C)(C)c1ccc(NC(=O)CSc2nnc(-c3n[nH]c4ccccc34)o2)cc1` it was 17.8 µM [rising, single point]. Turning to `COC(=O)c1scc(C)c1N/N=C(\C)c1ccc(F)cc1F`, the AC50 under setting [2] was 31.6 µM [rising, single point].

With `O=C(Nc1nc(-c2ccc(-c3ccccc3)cc2)cs1)c1cnccn1`, under setting [1], the AC50 is 2.51 µM [rising, full curve, poor fit].

Regarding `Cc1ccc(S(=O)(=O)Oc2ccc(N3C(=O)C4C5CCC(C5)C4C3=O)cc2)cc1` (stereo unspecified), the AC50 reads like this: under setting [2], 1.12 µM [falling, full curve, poor fit]; under setting [1], 10 µM [falling, partial curve].

Turning to `Cc1ccc(NCCC(=O)c2ccc(Cl)c(Cl)c2)cc1`, the AC50 is, setting by setting: under setting [2], 12.6 µM [falling, single point]; under setting [1], 20 µM [falling, single point]. Consider `Cc1c(Cl)ccc(S(=O)(=O)N2CCN=C2c2ccccc2)c1Cl`, for which, under setting [1], the AC50 is 31.6 µM [rising, single point].

For the molecule `OC(COC(c1ccc(Cl)cc1)c1ccc(Cl)cc1)CN1CCc2ccccc2C1` (stereo unspecified), the AC50 under setting [1] is 10 µM [rising, partial curve]. On to `CN(C)CC1CCCCC1OC(=O)c1ccc(Cl)cc1Cl` (stereo unspecified), for which the AC50 runs as follows: under setting [2], 5.62 µM [rising, single point]; under setting [1], 5.62 µM [rising, single point]. Turning to `CCn1c(-c2ccc(F)cc2)cnc1SCC(=O)N1CCCCC1C` (stereo unspecified), under setting [1], the AC50 was 35.5 µM [rising, single point].

For the molecule `O=C(NCCC1=CCCCC1)C1CCN(S(=O)(=O)c2ccc(Br)s2)CC1`, the AC50 is, setting by setting: under setting [2], 14.1 µM [rising, single point]; under setting [1], 25.1 µM [rising, single point]. For the molecule `COc1ccccc1N1CCN(c2cnccn2)CC1`, the AC50 under setting [1] was 35.5 µM [rising, single point]. `O=C(NCCc1c[nH]c2ccccc12)Nc1cccc2ccccc12`: the AC50 under setting [1] was 14.1 µM [rising, partial curve, poor fit].

`CC(C)NC(=O)c1cc2nc(-c3ccco3)cc(C(F)(F)F)n2n1`: the AC50 under setting [1] is 14.1 µM [falling, single point].

Consider `Cc1ccc(N(CC(=O)Nc2c(C)n(C)n(-c3ccccc3)c2=O)S(C)(=O)=O)c(C)c1`, for which the AC50 under setting [1] is 1.41 µM [falling, full curve, poor fit]. Still for that read-out and setting: next, `c1ccc(-c2nnc3ccc(N4CCC5(CC4)OCCO5)nn23)cc1`: 4.47 µM [rising, partial curve, poor fit].

Regarding `Cc1ccc(C(=O)/C=C/c2ccc(-c3ccccc3[N+](=O)[O-])o2)cc1`, the AC50 under setting [2] is 35.5 µM [falling, single point]. Still for that read-out and setting: next, `NC(=O)CCSC(=S)N1CCOCC1`: 0.00398 µM [rising, full curve, poor fit]. In the case of `CC(=O)Nc1sc2c(c1CN1CCN(c3ccccn3)CC1)CCCC2`, the AC50 is 17.8 µM [rising, partial curve, poor fit] under setting [2] and 14.1 µM [rising, partial curve] under setting [1]. `O=C1CCCN1CCCNc1ncnc2c1[nH]c1ccccc12`: the AC50 under setting [1] is 31.6 µM [rising, single point]. Regarding `CCn1c(COc2cccc(C)c2C)nnc1SCC(=O)N1CCN(c2ccc(OC)cc2)CC1`, the AC50 is 7.08 µM [rising, partial curve, poor fit] under setting [2] and 7.08 µM [rising, partial curve] under setting [1].

As for `C(=N\n1cnnc1)/c1cn(-c2cccs2)nc1-c1ccccc1`, under setting [1], the AC50 is 17.8 µM [rising, single point].

In the case of `C[C@H]1O[C@@H](n2cc(F)c(=O)[nH]c2=O)[C@H](O)[C@@H]1O`, the AC50 is 15.8 µM [rising, single point] and 1 µM [falling, full curve] under setting [2]; 1.12 µM [rising, full curve, poor fit] and 562 nM [rising, full curve] under setting [1]. In the case of `Cc1cc(C)c2sc(N(CCN(C)C)C(=O)c3cc(Cl)sc3Cl)nc2c1`, the AC50 under setting [2] is 0.0282 µM [rising, full curve, poor fit].

For `N=C(N)c1ccc(Cl)cc1`, the concentration at half-maximal activity (AC50) under setting [2] is 0.501 µM [rising, partial curve, poor fit] and the AC50 under setting [1] is 5.01 µM [rising, partial curve, poor fit]. On to `COc1ccc(/C(C)=N/NC(=S)NCCc2ccccc2)cc1`, for which the AC50 under setting [2] is 2 µM [falling, partial curve, poor fit] and the AC50 under setting [1] is 35.5 µM [rising, single point]. Regarding `COc1ccc(CNc2c(CO)cnc3c2cnn3C)cc1`, the AC50 was 0.282 µM [rising, full curve] under setting [2] and 0.282 µM [rising, partial curve] under setting [1]. As for `Cc1ccc(/C=C2/NC(=O)N(c3ccccc3)C2=O)o1`, the AC50 is 11.2 µM [falling, single point] under setting [2] and 0.0316 µM [falling, single point] under setting [1]. As to `CSc1ccc(CN2C(=O)NC3(CCCCC3)C2=O)cc1`, the AC50 under setting [1] is 0.126 µM [rising, full curve, poor fit]. For `CC1CC(C)CN(C(=O)CCc2ccccc2)C1` (stereo unspecified), the AC50 under setting [2] was 11.2 µM [rising, partial curve, poor fit]. Take `CCn1ncc(Cl)c1C(=O)Nc1cc([N+](=O)[O-])ccc1OC`: the AC50 under setting [1] is 0.891 µM [rising, partial curve, poor fit]. Turning to `COc1ccc(O[C@H]2C=C[C@@H](c3ccccc3)O[C@@H]2CO/N=C(\C)CCN2CCc3nc(-c4ccccc4)c(-c4ccccc4)cc3C2)cc1`, the AC50 was 11.2 µM [rising, single point] under setting [2] and 14.1 µM [rising, single point] under setting [1].

(Values after PubChem BioAssay AID1487 (National Center for Advancing Translational Sciences (NCATS), 2009).)
